The values that follow come from PubChem BioAssay AID493014 (National Center for Advancing Translational Sciences (NCATS), 2011).

Some of the results follow. Shown are side measurements of this screen, not its main read-out; they come without a call. Compounds called inactive in the main read-out are mostly missing here. Words in brackets tell the shape of the fitted curve; partial curves, single points and poor fits give uncertain potencies.

The nature of the experiment: qHTS Assay to Find Inhibitors of Chronic Active B-Cell Receptor Signaling. As to conditions: ABC-DLBCL IkBa-CBG/CBR reporter, luminescence ratio (green luciferase fused to IkBa over red control in TMD8 lymphoma cells), 4 h. Put shortly:
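Doxycycline induced both beetle luciferases in TMD8 lymphoma cells; IKK-driven degradation limits the IkappaBalpha-fused green signal, while red luminescence normalises for cell number and nonspecific effects. Compounds tested up to 46 uM, 4 hrs.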

[1] abbreviates: measured here: CBR red luminescence, cell number.
Where [2] appears, read: measured here: IkBa-CBG green luminescence.

As to `CC(C)C[C@H](NC(=O)NC(C)C)C(=O)O`, the AC50 under setting [1] is 0.517 µM [falling, full curve, poor fit]. On to `Cc1cc(N/C(=N\S(=O)(=O)c2ccc(F)cc2F)c2ccccc2)no1`, for which the AC50 under setting [1] was 6.51 µM [falling, partial curve, poor fit]. Regarding `O=C(CCCCCN1C(=O)CCC1=O)Nc1ncn[nH]1`, the AC50 under setting [1] is 6.51 µM [rising, single point]. Still for that read-out and setting: then `CC1CCCN(c2ccc([N+](=O)[O-])s2)C1` (stereo unspecified), with 12.6 µM [falling, partial curve]; and `CCOC(=O)N1CCC(NC(=O)c2cc3c(-c4ccccc4F)nn(C)c3s2)CC1`, with 4.11 µM [rising, full curve, poor fit]. On the same count and under the same terms, next, `Cc1cc2[nH]c(=O)cc(-c3ccccc3)n2n1`: 14.1 µM [falling, partial curve, poor fit]. The same measure, in the same setting: next, `Cn1cccc1/C=N/NC(=O)c1ccn[nH]1`: 16.4 µM [falling, partial curve, poor fit]; `C=CCn1c(CSCc2ccc(C)cc2)nnc1SCC(=O)NCc1ccccc1`: 29.1 µM [falling, single point]; `COc1ccccc1NC(=O)Nc1nc(CC(=O)Nc2ccc(F)c(F)c2)cs1`: 29.1 µM [falling, single point]. For the molecule `COc1ccc(C(=O)N2CC(c3ccccc3)CC2=O)cc1` (stereo unspecified), the AC50 under setting [1] is 0.891 µM [rising, full curve, poor fit]. Take `C/C(CC(=O)NC12CC3CC(CC(C3)C1)C2)=N\NC(=O)c1cnccn1`: the AC50 under setting [1] was 20 µM [falling, partial curve, poor fit].

In the case of `CCn1c(=NC(=O)c2ccc(S(=O)(=O)N(C)C)cc2)sc2cccc(OC)c21`, under setting [1], the AC50 is 7.08 µM [falling, partial curve]. As for `CCN(CC)S(=O)(=O)c1cc(NS(=O)(=O)c2ccccc2)ccc1C`, the half-maximal activity concentration (AC50) under setting [2] was 14.6 µM [rising, partial curve, poor fit]. As to `Cc1noc(C)c1S(=O)(=O)N(C)C[C@H]1Oc2ccc(NS(=O)(=O)c3ccccc3)cc2C(=O)N([C@H](C)CO)C[C@@H]1C`, the AC50 under setting [1] was 1.3 µM [rising, full curve].

Regarding `CCOc1ccc(OCC)c(NC(=O)C2CCN(S(=O)(=O)c3ccc4c(c3)CC(C)N4C(C)=O)CC2)c1` (stereo unspecified), under setting [1], the AC50 was 5.62 µM [falling, full curve]. The same measure, in the same setting: next, `Cc1ccc(C(=O)OCC(=O)N2CC(=O)Nc3ccccc32)s1`: 10 µM [rising, partial curve]. As to `CC(C)(C)NC(=O)C(=O)NCc1ccccn1`, the AC50 under setting [1] is 15.8 µM [rising, partial curve, poor fit]. Turning to `COc1cc(NC(=O)c2ccc(N3CCCC3=O)cc2)cc(OC)c1`, the AC50 under setting [1] was 29.1 µM [falling, single point].

With `O=C(NC(=S)NCc1ccc(-c2nc3ccccc3s2)cc1)c1ccco1`, the AC50 under setting [1] was 3.26 µM [rising, full curve, poor fit].

`Nc1nc(-c2ccc(Br)s2)c(Br)s1`: the AC50 under setting [1] was 0.82 µM [rising, partial curve]. In the case of `O=C(NC(=S)Nc1ccc(S(=O)(=O)Nc2nccs2)cc1)c1ccc(F)cc1`, under setting [2], the AC50 is 16.4 µM [rising, partial curve, poor fit]. Take `O=C(Cn1nc(C(=O)O)c2ccccc2c1=O)c1cc(F)ccc1F`: the AC50 under setting [1] is 0.708 µM [rising, partial curve, poor fit]. The same measure, in the same setting: then `COc1cccc(/C(O)=C2/C(=O)C(=O)N(CCCN(C)C)C2c2cccc(Cl)c2)c1` (stereo unspecified), with 3.55 µM [rising, full curve, poor fit]. Same read-out and setting: next, `CCn1ncc(/C=N/NC(=O)c2ccc3c(c2)OCO3)c1C`: 2.24 µM [falling, full curve]. On the same count and under the same terms, then `OCCN1CCN(c2ncnc3scc(-c4ccc(F)cc4)c23)CC1`, with 4.47 µM [rising, partial curve, poor fit]; and `O=C(Nc1ccc(N2CCOCC2)cc1)c1cc(-c2ccncc2)nc2ccccc12`, with 10 µM [rising, partial curve, poor fit]; and `Cc1ccc(C2C(C(=O)O)c3ccccc3C(=O)N2C)o1` (stereo unspecified), with 0.366 µM [falling, full curve, poor fit]. Take `O=C(/C=C/NNC(=O)c1ccc(Br)cc1)c1ccccc1`: the AC50 under setting [1] was 7.31 µM [falling, partial curve].

Regarding `CCOC(=O)c1sc(NC(=O)c2cc(S(=O)(=O)N3CCOCC3)ccc2C)nc1C`, the AC50 under setting [1] was 3.26 µM [falling, single point].

For the molecule `O=C(NCCc1c[nH]c2ccccc12)c1ccc(Br)o1`, the AC50 under setting [1] was 0.461 µM [rising, full curve, poor fit]. For the molecule `CCc1cccc(NC(=O)Nc2ccc3c(c2)OCO3)c1`, the AC50 under setting [1] is 35.5 µM [falling, single point]. The same measure, in the same setting: then `CCOC(=O)c1c(-c2ccccc2)csc1NC(=O)CSc1nc(N)cc(N)n1`, with 2.59 µM [rising, partial curve, poor fit]; and `Cc1onc(-c2c(Cl)cccc2Cl)c1C(=O)NC(=S)Nc1sc2c(c1C(N)=O)CCC(C)C2` (stereo unspecified), with 0.92 µM [falling, full curve]. Turning to `CC(C)(C)NC(=O)CCCSc1nc2ccccc2s1`, the AC50 under setting [1] was 4.47 µM [rising, full curve]. The same measure, in the same setting: then `CSc1nc(N2CCOCC2)nc2ccc(C)cc12`, with 11.6 µM [rising, partial curve, poor fit]; and `Cc1ccc(-c2csc3ncnc(Sc4nnc(CN5CCCCCC5=O)o4)c23)cc1`, with 7.94 µM [falling, partial curve].

As to `O=c1[nH]cnc2c1nc(NCc1ccccc1)n2C1O[C@@H](CO)[C@H](O)[C@@H]1O` (stereo partly specified), the AC50 under setting [1] was 12.6 µM [rising, partial curve, poor fit]. For the molecule `COc1ccccc1-n1cnnc1SCC(=O)N1CCN(S(=O)(=O)c2ccccc2)CC1`, the AC50 under setting [1] was 0.447 µM [falling, full curve]. Still for that read-out and setting: then `COc1ccc2[nH]c(=O)c(CNc3ccccc3C)cc2c1`, with 35.5 µM [falling, single point]; and `CCOC(=O)c1cnc(SCCc2ccccc2)nc1N`, with 0.891 µM [rising, partial curve, poor fit]. `COc1ccc(CNc2nc(NCc3ccc(OC)c(OC)c3)n(C(=O)c3cccs3)n2)cc1OC`: under setting [1], the AC50 is 14.1 µM [falling, single point].
